Measurements reported in the supplement of paper PMC8728848.
The list shows a part of the results.

What was measured:
Assay in all cases: glycan array binding signal (z-score within array); higher = stronger binding
Conditions in all cases: glycan notation: IUPAC condensed, linker removed
[1] = molecular target: Gal(b1-3)GalNAc
Procedure, shortened: (§1)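 Columns mapping to the same glycan were averaged after glycan names were converted to IUPAC-condensed notation. The data come from 3228 arrays in the Consortium for Functional Glycomics database, limited to those with an available protein sequence. Binding is reported as a within-array Z-score averaged across arrays of one protein sequence and across linkers.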

[2] = molecular target: Gal(b1-3)GalNAc(b1-3)Gal(a1-4)Gal(b1-4)Glc
Procedure, shortened: as §1

[3] = molecular target: Gal(b1-3)GalNAc(b1-4)Gal(b1-4)Glc
Procedure, shortened: as §1

[4] = molecular target: Gal(b1-3)GalNAc(b1-4)[Neu5Ac(a2-3)]Gal(b1-4)Glc
Procedure, shortened: as §1

[5] = molecular target: Gal(b1-3)GlcNAc
Procedure, shortened: as §1

[6] = molecular target: Gal(b1-3)GlcNAc(b1-3)Gal(b1-3)GlcNAc
Procedure, shortened: as §1

[7] = molecular target: Gal(b1-3)GlcNAc(b1-3)Gal(b1-4)Glc
Procedure, shortened: as §1

[8] = molecular target: Gal(b1-3)GlcNAc(b1-3)Gal(b1-4)GlcNAc
Procedure, shortened: as §1

[9] = molecular target: Gal(b1-3)[Fuc(a1-4)]GlcNAc
Procedure, shortened: as §1

[10] = molecular target: Gal(b1-3)[Fuc(a1-4)]GlcNAc(b1-3)Gal(b1-3)[Fuc(a1-4)]GlcNAc
Procedure, shortened: as §1

[11] = molecular target: Gal(b1-3)[Fuc(a1-4)]GlcNAc(b1-3)Gal(b1-4)GlcNAc
Procedure, shortened: as §1

[12] = molecular target: Gal(b1-3)[Fuc(a1-4)]GlcNAc(b1-3)Gal(b1-4)[Fuc(a1-3)]GlcNAc
Procedure, shortened: as §1

[13] = molecular target: Gal(b1-3)[GlcNAc(b1-6)]GalNAc
Procedure, shortened: as §1

[14] = molecular target: Gal(b1-3)[Neu5Ac(a2-6)]GalNAc
Procedure, shortened: as §1

[15] = molecular target: Gal(b1-3)[Neu5Ac(a2-6)]GlcNAc(b1-6)Gal(b1-4)Glc
Procedure, shortened: as §1

[16] = molecular target: Gal(b1-3)[Neu5Ac(b2-6)]GalNAc
Procedure, shortened: as §1

[17] = molecular target: Gal(b1-4)GalNAc(a1-3)[Fuc(a1-2)]Gal(b1-4)GlcNAc
Procedure, shortened: as §1

[18] = molecular target: Gal(b1-4)GalNAc(b1-3)[Fuc(a1-2)]Gal(b1-4)GlcNAc
Procedure, shortened: as §1

[19] = molecular target: Gal(b1-4)Glc
Procedure, shortened: as §1

[20] = molecular target: Gal(b1-4)Glc6S
Procedure, shortened: as §1

[21] = molecular target: Gal(b1-4)GlcNAc
Procedure, shortened: as §1

[22] = molecular target: Gal(b1-4)GlcNAc(b1-2)Man(a1-3)[Gal(b1-4)GlcNAc(b1-2)Man(a1-6)]Man(b1-4)GlcNAc(b1-4)GlcNAc
Procedure, shortened: as §1

[23] = molecular target: Gal(b1-4)GlcNAc(b1-3)Gal(b1-3)GlcNAc
Procedure, shortened: as §1

[24] = molecular target: Gal(b1-4)GlcNAc(b1-3)Gal(b1-4)Glc
Procedure, shortened: as §1

[25] = molecular target: Gal(b1-4)GlcNAc(b1-3)Gal(b1-4)GlcNAc
Procedure, shortened: as §1

[26] = molecular target: Gal(b1-4)GlcNAc(b1-3)Gal(b1-4)GlcNAc(b1-3)Gal(b1-4)GlcNAc
Procedure, shortened: as §1

[27] = molecular target: Gal(b1-4)GlcNAc(b1-3)Gal(b1-4)[Fuc(a1-3)]GlcNAc(b1-3)Gal(b1-4)[Fuc(a1-3)]GlcNAc
Procedure, shortened: as §1

[28] = molecular target: Gal(b1-4)GlcNAc(b1-3)GalNAc
Procedure, shortened: as §1

[29] = molecular target: Gal(b1-4)GlcNAc(b1-3)[Gal(b1-4)GlcNAc(b1-6)]GalNAc
Procedure, shortened: as §1

[30] = molecular target: Gal(b1-4)GlcNAc(b1-6)Gal(b1-4)GlcNAc(b1-6)GalNAc
Procedure, shortened: as §1

[31] = molecular target: Gal(b1-4)GlcNAc(b1-6)GalNAc
Procedure, shortened: as §1

[32] = molecular target: Gal(b1-4)GlcNAc(b1-6)[Gal(b1-3)]GalNAc
Procedure, shortened: as §1

[33] = molecular target: Gal3S(b1-3)GalNAc
Procedure, shortened: as §1

[34] = molecular target: Gal3S(b1-3)GlcNAc
Procedure, shortened: as §1

[35] = molecular target: Gal3S(b1-3)[Fuc(a1-4)]GlcNAc
Procedure, shortened: as §1

[36] = molecular target: Gal3S(b1-4)Glc
Procedure, shortened: as §1

[37] = molecular target: Gal3S(b1-4)Glc6S
Procedure, shortened: as §1

B1: M6PR (Bos taurus), P11456 (protein)
chain: MMSPLHSSWRTGLLLLLLFSVAVRESWQTEEKTCDLVGEKGKESEKELALLKRLTPLFNKSFESTVGQSPDMYSYVFRVCREAGNHSSGAGLVQINKSNGKETVVGRFNETQIFNGSNWIMLIYKGGDEYDNHCGREQRRAVVMISCNRHTLADNFN
- glycan array binding signal (z-score) [1]: -0.163
- glycan array binding signal (z-score) [2]: -0.573
- glycan array binding signal (z-score) [3]: -0.067
- glycan array binding signal (z-score) [4]: -0.314
- glycan array binding signal (z-score) [5]: 0.463
- glycan array binding signal (z-score) [6]: -0.212
- glycan array binding signal (z-score) [7]: -0.227
- glycan array binding signal (z-score) [8]: -0.584
- glycan array binding signal (z-score) [9]: -0.132
- glycan array binding signal (z-score) [10]: 0.728
- glycan array binding signal (z-score) [11]: -0.187
- glycan array binding signal (z-score) [12]: 0.169
- glycan array binding signal (z-score) [13]: -0.247
- glycan array binding signal (z-score) [14]: -0.385
- glycan array binding signal (z-score) [15]: -0.723
- glycan array binding signal (z-score) [16]: -0.596
- glycan array binding signal (z-score) [17]: -0.164
- glycan array binding signal (z-score) [18]: 0.157
- glycan array binding signal (z-score) [19]: -0.642
- glycan array binding signal (z-score) [20]: -0.193
- glycan array binding signal (z-score) [21]: -0.185
- glycan array binding signal (z-score) [22]: -0.276
- glycan array binding signal (z-score) [23]: -0.435
- glycan array binding signal (z-score) [24]: -0.366
- glycan array binding signal (z-score) [25]: 0.2
- glycan array binding signal (z-score) [26]: -0.586
- glycan array binding signal (z-score) [27]: -0.396
- glycan array binding signal (z-score) [28]: -0.399
- glycan array binding signal (z-score) [29]: -0.069
- glycan array binding signal (z-score) [30]: -0.673
- glycan array binding signal (z-score) [31]: -0.397
- glycan array binding signal (z-score) [32]: -0.201
- glycan array binding signal (z-score) [33]: -0.095
- glycan array binding signal (z-score) [34]: 0.421
- glycan array binding signal (z-score) [35]: 0.285
- glycan array binding signal (z-score) [36]: -0.177
- glycan array binding signal (z-score) [37]: 0.01
